Results deposited as PubChem BioAssay AID504774 (Drosophila RNAi Screening Center, 2011)
Purpose: 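Genes required for cells to withstand methyl methanesulphonate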 (primary screen). System: Drosophila Kc167 cells. Reagents: long dsRNA against Drosophila genes, about 0.25 µg dsRNA per well. Time to read-out: about 6 days: 3 days knock-down, then 3 days with or without MMS. Challenge: methyl methanesulphonate 0.004% (w/v) for 3 days after knock-down. Measured: 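ATP-dependent luminescence as a measure of live cells in MMS-exposed wells, quantile normalised within each plate, with replicate values also given as a mean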. Direction: mean viability with MMS and viability with MMS: higher = more surviving cells after MMS.
The deposit covers about 23,000 reagents; below is a random part of those that have a named target and a result. 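Values are quantile-normalised luminescence on an arbitrary scale; higher means more cells surviving MMS.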 Names joined by + are all predicted targets of the reagent.

no.	Target gene	DRSC id	mean viability with MMS	viability with MMS, replicate 1	viability with MMS, replicate 2
1	CG6144	DRSC02934	1.74e6	3.95e6	3.87e6
2	Mi-2	DRSC11222	3.23e6	3.67e6	3.63e6
3	Gen	DRSC09679	3.61e6	4.11e6	4.08e6
4	Ank2	DRSC08894	3.43e6	3.91e6	3.87e6
5	Ank2	DRSC09666	3.69e6	4.14e6	4.23e6
6	Ank2	DRSC10338	3.52e6	3.94e6	4.06e6
7	Ank2	DRSC11278	3.62e6	4.16e6	4.07e6
8	Ank2	DRSC22922	3.59e6	4.05e6	4.05e6
9	CG8852	DRSC00719	3.62e6	4.19e6	3.98e6
10	SelT	DRSC02732	3.59e6	4.12e6	4.02e6
11	sut3	DRSC07702	3.71e6	4.07e6	4.21e6
12	CG32488	DRSC08549	2.09e6	4.25e6	4.18e6
13	CG32488	DRSC21537	3.61e6	4.13e6	4.04e6
14	Nph	DRSC16342	3.60e6	4.12e6	4.05e6
15	CG6749	DRSC10704	3.60e6	4.09e6	4.05e6
16	Usp30	DRSC18265	3.70e6	4.08e6	4.31e6
17	pHCl-2	DRSC14306	3.25e6	3.66e6	3.64e6
18	Spn42De	DRSC05011	3.76e6	4.23e6	4.12e6
19	CG32413	DRSC21591	3.62e6	4.03e6	4.17e6
20	CG9550	DRSC03262	3.58e6	4.11e6	3.98e6
21	CG4198	DRSC18354	3.57e6	4.12e6	3.94e6
22	Girdin	DRSC08292	3.44e6	3.91e6	3.90e6
23	Gos28	DRSC16292	3.58e6	3.92e6	4.19e6
24	Gos28	DRSC22859	3.60e6	4.35e6	3.79e6
25	Ephrin	DRSC17165	3.57e6	4.16e6	3.95e6
26	CG43894	DRSC10123	3.47e6	3.99e6	3.88e6
27	bcd + CR14578	DRSC20984	3.54e6	4.06e6	3.98e6
28	MED6	DRSC16500	3.35e6	3.75e6	3.81e6
29	CG14625	DRSC18633	3.55e6	4.10e6	3.95e6
30	Prps	DRSC08994	3.33e6	3.77e6	3.76e6
31	Prps	DRSC10707	3.37e6	3.77e6	3.81e6
32	Prps	DRSC10708	3.42e6	3.79e6	3.95e6
33	Obp8a	DRSC17868	3.52e6	3.99e6	3.97e6
34	Oseg4	DRSC08548	3.48e6	3.93e6	3.95e6
35	DNaseII	DRSC16310	3.65e6	4.11e6	4.14e6
36	Tsp42Eo	DRSC06184	3.58e6	4.03e6	4.07e6
37	Or65a	DRSC08808	3.52e6	4.06e6	3.93e6
38	clos	DRSC06240	3.45e6	3.90e6	3.94e6
39	clos	DRSC06241	3.48e6	3.93e6	3.99e6
40	clos	DRSC06778	3.44e6	3.88e6	3.94e6
41	clos	DRSC21857	3.45e6	4.01e6	3.85e6
42	clos	DRSC22942	3.53e6	4.02e6	3.98e6
43	CG16956	DRSC02544	3.57e6	4.12e6	3.97e6
44	Kr-h2	DRSC03356	3.55e6	3.96e6	4.07e6
45	CG5770	DRSC06954	3.57e6	4.07e6	4.03e6
46	Bacc	DRSC00735	3.48e6	3.89e6	4.00e6

Not a retest: 7 of the entries above.
no.	Target gene	DRSC id	mean viability with MMS	viability with MMS, replicate 1	viability with MMS, replicate 2
14	Nph	DRSC16342	3.60e6	4.12e6	4.05e6
15	CG6749	DRSC10704	3.60e6	4.09e6	4.05e6
16	Usp30	DRSC18265	3.70e6	4.08e6	4.31e6
17	pHCl-2	DRSC14306	3.25e6	3.66e6	3.64e6
18	Spn42De	DRSC05011	3.76e6	4.23e6	4.12e6
19	CG32413	DRSC21591	3.62e6	4.03e6	4.17e6
20	CG9550	DRSC03262	3.58e6	4.11e6	3.98e6
